The list shows a part of the results. Small differences around the control level are noise.
Compound: Cc1nc(Nc2ncc(C(=O)Nc3c(C)cccc3Cl)s2)cc(N2CCN(CCO)CC2)n1 [dasatinib]
Assay: log2 fold change of tryptic peptide abundance, ligand vs vehicle (limited proteolysis) (log2 ratio); higher = more trypsin-susceptible (destabilized)
Details: ligand concentration: 5 uM; sample: K562 cleared lysate

Protein sequences, listed by entry. Tags and fused reporters are not part of them. Lines headed by an entry give the natural chain unless they say otherwise; changes in a name come on top.
UniProt O75694: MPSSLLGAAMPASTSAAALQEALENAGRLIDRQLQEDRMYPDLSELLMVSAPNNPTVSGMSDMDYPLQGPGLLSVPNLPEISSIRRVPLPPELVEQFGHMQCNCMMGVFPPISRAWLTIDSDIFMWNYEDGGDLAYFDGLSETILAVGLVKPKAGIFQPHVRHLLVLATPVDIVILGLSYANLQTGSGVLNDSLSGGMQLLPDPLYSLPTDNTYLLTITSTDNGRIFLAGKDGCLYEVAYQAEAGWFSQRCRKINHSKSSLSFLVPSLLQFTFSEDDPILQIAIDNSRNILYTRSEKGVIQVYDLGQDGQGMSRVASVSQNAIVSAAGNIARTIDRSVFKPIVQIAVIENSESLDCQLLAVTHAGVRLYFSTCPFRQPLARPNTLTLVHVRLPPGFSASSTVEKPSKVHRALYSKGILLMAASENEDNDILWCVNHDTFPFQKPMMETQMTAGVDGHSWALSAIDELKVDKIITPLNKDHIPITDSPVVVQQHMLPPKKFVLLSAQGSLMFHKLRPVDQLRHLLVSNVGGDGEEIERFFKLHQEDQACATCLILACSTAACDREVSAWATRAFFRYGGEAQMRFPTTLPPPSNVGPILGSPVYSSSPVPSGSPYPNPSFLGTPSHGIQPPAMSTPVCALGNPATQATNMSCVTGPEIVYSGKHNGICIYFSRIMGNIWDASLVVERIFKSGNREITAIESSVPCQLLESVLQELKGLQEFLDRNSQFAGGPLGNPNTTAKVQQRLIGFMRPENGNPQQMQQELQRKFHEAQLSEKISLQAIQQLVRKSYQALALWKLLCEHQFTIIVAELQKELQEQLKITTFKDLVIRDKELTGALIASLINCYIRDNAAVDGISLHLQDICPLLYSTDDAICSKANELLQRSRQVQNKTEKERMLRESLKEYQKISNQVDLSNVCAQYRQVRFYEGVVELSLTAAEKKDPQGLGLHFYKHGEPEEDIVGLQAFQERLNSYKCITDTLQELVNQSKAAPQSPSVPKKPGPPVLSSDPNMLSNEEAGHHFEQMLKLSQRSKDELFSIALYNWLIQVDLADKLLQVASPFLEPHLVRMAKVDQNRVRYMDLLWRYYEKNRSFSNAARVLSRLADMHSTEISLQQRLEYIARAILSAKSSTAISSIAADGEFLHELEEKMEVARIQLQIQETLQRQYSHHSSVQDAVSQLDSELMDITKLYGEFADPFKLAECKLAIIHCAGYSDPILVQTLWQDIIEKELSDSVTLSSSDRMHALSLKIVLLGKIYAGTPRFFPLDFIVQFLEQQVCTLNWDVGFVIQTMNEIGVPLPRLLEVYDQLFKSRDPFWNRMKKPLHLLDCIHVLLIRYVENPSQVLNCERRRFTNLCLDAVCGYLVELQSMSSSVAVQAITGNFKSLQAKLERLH
UniProt O94966: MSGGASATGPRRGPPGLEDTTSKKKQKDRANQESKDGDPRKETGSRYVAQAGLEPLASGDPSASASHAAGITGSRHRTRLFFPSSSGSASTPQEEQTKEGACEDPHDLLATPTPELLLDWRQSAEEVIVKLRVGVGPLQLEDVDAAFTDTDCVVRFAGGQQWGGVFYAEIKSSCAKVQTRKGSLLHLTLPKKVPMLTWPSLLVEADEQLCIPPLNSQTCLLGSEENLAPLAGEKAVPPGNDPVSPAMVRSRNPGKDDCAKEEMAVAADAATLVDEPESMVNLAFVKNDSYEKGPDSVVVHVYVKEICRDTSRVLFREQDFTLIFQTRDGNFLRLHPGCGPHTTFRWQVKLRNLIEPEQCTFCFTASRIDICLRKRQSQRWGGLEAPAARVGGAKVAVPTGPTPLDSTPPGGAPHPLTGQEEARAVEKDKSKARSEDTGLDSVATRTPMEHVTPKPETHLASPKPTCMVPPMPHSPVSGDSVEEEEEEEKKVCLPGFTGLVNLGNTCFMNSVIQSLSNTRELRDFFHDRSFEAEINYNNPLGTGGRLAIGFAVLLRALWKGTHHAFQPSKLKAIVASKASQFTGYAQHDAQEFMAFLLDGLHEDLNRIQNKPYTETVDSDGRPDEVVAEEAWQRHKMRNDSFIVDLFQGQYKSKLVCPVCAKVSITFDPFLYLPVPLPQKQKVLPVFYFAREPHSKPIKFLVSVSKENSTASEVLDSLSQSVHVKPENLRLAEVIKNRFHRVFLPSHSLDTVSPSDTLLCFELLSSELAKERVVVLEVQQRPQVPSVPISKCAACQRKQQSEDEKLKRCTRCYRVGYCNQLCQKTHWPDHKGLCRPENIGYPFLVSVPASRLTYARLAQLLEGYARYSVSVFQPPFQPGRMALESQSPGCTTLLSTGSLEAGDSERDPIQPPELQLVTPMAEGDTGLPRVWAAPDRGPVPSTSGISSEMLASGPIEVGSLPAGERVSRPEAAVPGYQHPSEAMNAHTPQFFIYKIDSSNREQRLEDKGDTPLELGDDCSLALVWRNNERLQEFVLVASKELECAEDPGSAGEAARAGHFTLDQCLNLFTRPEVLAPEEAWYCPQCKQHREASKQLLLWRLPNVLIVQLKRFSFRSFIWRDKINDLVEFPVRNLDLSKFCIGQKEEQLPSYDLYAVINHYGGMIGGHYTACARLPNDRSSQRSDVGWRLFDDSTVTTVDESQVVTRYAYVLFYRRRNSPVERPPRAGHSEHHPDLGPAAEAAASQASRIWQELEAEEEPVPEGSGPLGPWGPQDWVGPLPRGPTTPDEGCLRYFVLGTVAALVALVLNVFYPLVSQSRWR
UniProt O95997: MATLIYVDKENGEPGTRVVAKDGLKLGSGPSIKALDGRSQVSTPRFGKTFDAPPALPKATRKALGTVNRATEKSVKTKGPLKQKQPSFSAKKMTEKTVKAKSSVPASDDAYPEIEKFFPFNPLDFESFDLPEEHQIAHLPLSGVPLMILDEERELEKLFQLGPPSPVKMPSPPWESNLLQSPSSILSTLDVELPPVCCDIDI
UniProt O94955, whole entry: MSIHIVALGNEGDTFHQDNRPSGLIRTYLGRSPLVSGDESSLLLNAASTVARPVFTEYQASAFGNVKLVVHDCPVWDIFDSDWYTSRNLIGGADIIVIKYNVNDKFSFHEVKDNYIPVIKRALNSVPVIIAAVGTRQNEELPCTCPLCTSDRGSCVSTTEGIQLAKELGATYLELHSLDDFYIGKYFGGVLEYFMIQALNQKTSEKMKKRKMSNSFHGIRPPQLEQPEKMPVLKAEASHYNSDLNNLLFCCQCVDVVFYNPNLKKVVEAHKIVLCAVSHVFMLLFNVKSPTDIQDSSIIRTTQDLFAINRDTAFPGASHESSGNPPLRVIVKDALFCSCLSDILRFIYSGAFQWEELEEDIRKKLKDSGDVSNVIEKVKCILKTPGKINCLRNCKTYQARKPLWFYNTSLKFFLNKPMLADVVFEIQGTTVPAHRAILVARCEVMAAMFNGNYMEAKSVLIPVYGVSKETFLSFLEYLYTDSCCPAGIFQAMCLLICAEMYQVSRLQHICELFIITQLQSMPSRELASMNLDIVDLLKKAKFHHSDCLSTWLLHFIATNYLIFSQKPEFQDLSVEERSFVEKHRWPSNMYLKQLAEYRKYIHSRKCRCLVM
UniProt O95298, whole entry: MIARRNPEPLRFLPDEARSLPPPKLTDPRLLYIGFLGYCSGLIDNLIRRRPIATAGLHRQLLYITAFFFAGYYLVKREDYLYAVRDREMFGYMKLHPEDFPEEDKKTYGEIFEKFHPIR
UniProt O95071: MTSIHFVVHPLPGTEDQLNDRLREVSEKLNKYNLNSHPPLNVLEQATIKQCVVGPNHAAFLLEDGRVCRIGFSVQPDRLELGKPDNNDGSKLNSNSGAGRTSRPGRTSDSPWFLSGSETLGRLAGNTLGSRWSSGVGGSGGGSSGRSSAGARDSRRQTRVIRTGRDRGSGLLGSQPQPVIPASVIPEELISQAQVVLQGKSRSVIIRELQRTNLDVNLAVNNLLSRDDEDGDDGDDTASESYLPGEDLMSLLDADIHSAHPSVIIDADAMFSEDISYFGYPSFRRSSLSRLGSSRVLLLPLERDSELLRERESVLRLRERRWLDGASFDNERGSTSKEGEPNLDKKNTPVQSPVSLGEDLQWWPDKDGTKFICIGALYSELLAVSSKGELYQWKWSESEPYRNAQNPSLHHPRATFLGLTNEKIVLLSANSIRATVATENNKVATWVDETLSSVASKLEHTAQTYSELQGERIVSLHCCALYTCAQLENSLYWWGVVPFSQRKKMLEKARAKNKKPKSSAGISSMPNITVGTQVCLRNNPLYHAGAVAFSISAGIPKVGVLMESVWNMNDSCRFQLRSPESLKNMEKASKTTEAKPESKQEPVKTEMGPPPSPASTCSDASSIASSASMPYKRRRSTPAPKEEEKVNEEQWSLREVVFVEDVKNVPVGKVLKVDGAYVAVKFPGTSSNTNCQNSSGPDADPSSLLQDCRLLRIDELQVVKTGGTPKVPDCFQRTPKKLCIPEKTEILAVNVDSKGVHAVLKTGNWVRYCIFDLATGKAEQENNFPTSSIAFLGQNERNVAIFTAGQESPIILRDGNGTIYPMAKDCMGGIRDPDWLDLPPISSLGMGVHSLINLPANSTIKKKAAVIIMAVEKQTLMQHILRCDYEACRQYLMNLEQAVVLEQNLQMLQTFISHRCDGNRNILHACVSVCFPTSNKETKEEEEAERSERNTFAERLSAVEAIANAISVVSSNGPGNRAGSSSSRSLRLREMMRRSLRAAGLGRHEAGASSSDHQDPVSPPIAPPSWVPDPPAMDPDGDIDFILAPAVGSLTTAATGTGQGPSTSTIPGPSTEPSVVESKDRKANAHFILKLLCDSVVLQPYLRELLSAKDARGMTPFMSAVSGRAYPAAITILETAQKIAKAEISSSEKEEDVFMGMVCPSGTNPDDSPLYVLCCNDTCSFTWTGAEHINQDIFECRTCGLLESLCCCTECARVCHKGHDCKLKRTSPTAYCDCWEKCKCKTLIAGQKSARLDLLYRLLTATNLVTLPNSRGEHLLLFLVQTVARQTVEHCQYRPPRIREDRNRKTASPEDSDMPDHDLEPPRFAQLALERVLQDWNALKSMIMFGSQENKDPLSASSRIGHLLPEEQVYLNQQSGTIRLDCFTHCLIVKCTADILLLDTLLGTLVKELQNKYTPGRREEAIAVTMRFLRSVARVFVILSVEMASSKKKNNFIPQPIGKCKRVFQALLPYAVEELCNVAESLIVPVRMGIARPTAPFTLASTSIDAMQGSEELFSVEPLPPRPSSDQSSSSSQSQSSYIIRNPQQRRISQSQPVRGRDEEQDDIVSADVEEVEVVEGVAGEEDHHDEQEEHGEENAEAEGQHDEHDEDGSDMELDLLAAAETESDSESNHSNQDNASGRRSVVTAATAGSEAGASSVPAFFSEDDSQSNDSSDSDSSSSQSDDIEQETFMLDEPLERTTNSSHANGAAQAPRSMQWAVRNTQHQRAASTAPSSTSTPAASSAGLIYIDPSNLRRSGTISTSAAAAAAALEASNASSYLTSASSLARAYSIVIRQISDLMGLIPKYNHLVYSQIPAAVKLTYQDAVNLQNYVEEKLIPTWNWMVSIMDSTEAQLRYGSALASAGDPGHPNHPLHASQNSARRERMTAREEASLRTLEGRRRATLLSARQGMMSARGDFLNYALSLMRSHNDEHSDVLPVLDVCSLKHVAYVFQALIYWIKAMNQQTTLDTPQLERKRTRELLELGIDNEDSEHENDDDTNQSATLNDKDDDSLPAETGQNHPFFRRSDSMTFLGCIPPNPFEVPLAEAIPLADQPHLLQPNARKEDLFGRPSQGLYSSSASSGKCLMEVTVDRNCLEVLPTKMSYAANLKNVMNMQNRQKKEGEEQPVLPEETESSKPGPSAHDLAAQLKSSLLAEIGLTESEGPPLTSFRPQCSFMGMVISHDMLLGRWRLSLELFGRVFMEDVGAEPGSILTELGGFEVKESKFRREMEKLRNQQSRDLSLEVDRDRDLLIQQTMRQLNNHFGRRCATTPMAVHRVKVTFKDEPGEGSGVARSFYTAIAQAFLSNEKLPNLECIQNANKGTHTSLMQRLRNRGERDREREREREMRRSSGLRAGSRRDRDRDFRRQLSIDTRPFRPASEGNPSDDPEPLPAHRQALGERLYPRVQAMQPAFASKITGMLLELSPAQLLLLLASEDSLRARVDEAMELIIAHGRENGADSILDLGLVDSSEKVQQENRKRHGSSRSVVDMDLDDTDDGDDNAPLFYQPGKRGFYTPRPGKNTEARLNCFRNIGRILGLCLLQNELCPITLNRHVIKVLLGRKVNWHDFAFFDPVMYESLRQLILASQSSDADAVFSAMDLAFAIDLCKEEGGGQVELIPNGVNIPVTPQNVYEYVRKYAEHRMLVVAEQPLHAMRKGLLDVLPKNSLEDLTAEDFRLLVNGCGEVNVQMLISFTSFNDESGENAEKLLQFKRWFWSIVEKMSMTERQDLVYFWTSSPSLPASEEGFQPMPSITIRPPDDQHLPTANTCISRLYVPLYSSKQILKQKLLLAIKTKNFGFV

Target | log2 fold change
PIAS1 (peptide sequence: QLSSTVLLQR, peptide start residue: 287) (UniProt O75925) | -0.522
NUP155 (peptide sequence: KFVLLSAQGSLMFHK, peptide start residue: 499) (UniProt O75694) | -0.597
USP19 (peptide sequence: CYRVGYCNQLCQK, peptide start residue: 811) (UniProt O94966) | -0.736
PTTG1 (peptide sequence: LFQLGPPSPVK, peptide start residue: 158) (UniProt O95997) | -0.317
RHOBTB3 (peptide sequence: NLIGGADIIVIK, peptide start residue: 88) (UniProt O94955) | 0.215
NDUFC2 (peptide sequence: LHPEDFPEEDKK, peptide start residue: 95) (UniProt O95298) | -0.272
UniProt O95071 (peptide sequence: VTFKDEPGEGSGVAR, peptide start residue: 2279) | 0.207
TRIM37 (peptide sequence: KMVTLGANAK, peptide start residue: 854) (UniProt O94972) | 0.375
